Measured values from the supplement of paper PMC12819154, “High-throughput peptide-centric local stability assay extends protein–ligand identification to membrane proteins, tissues and bacteria” (Nature Structural & Molecular Biology, 2025).
This is one part of the list. Most entries show no effect beyond the scatter of the controls.

The chains behind the UniProt entries cited, without tags or fusion partners. Where a name states a change or a piece, a line headed by the entry shows the natural chain unless it says otherwise.
UniProt Q5T6J7: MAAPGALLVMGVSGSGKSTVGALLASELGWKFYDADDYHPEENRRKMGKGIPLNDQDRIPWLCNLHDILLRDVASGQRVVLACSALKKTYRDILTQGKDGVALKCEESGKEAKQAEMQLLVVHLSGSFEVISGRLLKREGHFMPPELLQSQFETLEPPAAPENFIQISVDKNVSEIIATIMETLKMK
UniProt Q5EBM0: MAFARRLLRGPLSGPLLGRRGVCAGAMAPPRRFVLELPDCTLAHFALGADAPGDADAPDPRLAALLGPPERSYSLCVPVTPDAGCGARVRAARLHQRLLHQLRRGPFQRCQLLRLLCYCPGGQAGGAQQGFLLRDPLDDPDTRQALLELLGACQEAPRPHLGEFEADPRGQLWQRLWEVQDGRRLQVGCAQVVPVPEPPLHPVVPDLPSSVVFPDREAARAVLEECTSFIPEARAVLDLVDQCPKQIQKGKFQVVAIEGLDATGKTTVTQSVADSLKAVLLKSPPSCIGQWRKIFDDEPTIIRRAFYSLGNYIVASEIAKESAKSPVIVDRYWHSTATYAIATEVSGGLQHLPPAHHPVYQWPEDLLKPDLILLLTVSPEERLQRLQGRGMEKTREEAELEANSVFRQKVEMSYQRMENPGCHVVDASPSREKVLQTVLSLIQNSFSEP
UniProt Q5SVQ8: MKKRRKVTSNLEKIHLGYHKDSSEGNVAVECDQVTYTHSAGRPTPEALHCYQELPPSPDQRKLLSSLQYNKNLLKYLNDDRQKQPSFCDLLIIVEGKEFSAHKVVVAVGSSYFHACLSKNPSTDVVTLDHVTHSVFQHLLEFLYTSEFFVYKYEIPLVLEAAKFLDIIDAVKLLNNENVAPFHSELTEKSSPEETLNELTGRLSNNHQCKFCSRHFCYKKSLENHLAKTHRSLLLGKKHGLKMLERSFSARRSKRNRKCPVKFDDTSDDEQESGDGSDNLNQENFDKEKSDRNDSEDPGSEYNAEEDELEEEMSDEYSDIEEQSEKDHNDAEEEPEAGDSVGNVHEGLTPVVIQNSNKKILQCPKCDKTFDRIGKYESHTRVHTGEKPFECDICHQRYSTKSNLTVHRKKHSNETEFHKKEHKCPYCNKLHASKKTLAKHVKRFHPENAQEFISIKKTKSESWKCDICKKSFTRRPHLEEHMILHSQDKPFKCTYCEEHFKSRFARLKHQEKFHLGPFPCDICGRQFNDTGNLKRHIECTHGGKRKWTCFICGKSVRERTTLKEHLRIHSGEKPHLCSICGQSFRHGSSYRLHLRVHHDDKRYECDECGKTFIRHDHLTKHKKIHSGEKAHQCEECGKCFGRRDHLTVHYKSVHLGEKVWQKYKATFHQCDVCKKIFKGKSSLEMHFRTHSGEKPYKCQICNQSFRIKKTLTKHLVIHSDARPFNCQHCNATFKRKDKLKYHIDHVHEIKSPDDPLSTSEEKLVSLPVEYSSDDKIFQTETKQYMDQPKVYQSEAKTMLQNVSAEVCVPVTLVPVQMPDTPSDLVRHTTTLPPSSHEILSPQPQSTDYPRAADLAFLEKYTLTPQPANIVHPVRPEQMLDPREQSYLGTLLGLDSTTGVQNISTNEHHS
UniProt Q504U0: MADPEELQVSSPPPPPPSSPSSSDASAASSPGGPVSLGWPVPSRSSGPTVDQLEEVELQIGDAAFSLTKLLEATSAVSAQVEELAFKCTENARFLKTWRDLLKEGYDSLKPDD
UniProt Q58FG1, whole entry: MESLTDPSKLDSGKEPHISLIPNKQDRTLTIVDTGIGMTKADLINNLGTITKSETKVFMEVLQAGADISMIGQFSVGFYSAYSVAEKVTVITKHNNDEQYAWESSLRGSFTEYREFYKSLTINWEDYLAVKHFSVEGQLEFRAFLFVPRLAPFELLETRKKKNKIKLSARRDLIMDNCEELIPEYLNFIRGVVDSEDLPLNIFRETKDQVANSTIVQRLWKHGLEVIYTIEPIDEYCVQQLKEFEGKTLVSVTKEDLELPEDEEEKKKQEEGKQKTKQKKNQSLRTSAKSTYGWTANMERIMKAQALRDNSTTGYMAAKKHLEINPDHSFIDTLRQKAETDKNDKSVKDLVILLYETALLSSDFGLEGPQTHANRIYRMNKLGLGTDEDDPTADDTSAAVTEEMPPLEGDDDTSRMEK
UniProt Q5T447: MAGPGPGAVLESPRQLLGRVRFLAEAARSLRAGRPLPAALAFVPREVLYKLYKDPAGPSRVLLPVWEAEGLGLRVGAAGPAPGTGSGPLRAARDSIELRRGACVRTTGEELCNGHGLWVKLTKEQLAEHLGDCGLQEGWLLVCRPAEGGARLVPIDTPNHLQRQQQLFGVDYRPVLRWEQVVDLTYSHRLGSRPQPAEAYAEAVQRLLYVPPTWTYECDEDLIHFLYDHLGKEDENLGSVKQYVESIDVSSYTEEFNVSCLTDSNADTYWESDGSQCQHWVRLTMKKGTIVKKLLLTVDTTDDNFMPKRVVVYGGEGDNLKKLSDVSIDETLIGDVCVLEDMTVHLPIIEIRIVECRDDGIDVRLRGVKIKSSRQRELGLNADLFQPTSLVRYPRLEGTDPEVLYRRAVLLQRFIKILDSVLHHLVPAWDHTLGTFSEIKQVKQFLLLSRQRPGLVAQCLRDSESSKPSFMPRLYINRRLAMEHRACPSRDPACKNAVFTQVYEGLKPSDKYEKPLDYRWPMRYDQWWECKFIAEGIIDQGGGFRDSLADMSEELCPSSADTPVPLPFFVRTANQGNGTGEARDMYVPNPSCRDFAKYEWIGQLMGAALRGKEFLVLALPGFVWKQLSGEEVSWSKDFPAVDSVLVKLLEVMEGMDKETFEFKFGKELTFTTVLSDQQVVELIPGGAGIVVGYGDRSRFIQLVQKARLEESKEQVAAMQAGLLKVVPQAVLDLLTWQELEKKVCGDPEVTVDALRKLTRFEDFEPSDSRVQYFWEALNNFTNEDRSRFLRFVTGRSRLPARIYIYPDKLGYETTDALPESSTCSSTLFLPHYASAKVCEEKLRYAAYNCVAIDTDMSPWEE
UniProt Q53H96: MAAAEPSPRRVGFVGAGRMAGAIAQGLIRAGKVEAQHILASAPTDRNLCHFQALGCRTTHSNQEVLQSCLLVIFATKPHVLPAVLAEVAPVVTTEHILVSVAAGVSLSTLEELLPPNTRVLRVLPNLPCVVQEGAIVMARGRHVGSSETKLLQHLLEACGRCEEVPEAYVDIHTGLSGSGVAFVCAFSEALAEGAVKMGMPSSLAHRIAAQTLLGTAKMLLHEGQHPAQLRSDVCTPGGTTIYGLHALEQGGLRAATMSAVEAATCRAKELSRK
UniProt Q5EBL4: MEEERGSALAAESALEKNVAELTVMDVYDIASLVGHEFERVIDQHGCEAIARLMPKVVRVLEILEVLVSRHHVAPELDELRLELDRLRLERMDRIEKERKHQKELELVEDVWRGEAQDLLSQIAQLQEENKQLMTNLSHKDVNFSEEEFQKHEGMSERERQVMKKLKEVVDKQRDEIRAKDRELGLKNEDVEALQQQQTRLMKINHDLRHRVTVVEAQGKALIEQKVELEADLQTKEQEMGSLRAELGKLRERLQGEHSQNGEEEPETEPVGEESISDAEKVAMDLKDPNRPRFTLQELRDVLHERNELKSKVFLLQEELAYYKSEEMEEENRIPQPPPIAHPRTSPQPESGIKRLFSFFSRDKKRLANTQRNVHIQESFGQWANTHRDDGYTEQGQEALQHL
UniProt Q5T5X7: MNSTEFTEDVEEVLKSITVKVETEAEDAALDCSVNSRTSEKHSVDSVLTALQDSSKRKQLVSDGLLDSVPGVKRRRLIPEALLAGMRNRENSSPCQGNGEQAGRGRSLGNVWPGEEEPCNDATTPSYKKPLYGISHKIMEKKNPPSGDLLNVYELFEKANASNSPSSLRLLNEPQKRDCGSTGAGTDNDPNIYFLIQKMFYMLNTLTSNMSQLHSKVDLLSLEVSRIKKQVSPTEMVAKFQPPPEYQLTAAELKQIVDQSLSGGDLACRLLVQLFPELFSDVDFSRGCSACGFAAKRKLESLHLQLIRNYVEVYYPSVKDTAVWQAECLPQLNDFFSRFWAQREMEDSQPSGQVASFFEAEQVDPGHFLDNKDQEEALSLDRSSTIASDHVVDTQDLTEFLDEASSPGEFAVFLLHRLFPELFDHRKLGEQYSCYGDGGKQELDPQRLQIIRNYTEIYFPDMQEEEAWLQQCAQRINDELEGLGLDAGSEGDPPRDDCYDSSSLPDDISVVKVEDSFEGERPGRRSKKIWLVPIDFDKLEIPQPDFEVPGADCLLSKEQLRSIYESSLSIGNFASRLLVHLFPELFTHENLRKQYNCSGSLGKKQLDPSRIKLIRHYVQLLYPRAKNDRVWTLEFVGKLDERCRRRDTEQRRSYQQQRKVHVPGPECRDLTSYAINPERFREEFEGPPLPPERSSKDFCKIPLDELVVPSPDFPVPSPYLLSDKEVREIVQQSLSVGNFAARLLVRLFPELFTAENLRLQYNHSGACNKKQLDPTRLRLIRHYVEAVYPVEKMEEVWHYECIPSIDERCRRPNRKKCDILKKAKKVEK
UniProt Q5THK1: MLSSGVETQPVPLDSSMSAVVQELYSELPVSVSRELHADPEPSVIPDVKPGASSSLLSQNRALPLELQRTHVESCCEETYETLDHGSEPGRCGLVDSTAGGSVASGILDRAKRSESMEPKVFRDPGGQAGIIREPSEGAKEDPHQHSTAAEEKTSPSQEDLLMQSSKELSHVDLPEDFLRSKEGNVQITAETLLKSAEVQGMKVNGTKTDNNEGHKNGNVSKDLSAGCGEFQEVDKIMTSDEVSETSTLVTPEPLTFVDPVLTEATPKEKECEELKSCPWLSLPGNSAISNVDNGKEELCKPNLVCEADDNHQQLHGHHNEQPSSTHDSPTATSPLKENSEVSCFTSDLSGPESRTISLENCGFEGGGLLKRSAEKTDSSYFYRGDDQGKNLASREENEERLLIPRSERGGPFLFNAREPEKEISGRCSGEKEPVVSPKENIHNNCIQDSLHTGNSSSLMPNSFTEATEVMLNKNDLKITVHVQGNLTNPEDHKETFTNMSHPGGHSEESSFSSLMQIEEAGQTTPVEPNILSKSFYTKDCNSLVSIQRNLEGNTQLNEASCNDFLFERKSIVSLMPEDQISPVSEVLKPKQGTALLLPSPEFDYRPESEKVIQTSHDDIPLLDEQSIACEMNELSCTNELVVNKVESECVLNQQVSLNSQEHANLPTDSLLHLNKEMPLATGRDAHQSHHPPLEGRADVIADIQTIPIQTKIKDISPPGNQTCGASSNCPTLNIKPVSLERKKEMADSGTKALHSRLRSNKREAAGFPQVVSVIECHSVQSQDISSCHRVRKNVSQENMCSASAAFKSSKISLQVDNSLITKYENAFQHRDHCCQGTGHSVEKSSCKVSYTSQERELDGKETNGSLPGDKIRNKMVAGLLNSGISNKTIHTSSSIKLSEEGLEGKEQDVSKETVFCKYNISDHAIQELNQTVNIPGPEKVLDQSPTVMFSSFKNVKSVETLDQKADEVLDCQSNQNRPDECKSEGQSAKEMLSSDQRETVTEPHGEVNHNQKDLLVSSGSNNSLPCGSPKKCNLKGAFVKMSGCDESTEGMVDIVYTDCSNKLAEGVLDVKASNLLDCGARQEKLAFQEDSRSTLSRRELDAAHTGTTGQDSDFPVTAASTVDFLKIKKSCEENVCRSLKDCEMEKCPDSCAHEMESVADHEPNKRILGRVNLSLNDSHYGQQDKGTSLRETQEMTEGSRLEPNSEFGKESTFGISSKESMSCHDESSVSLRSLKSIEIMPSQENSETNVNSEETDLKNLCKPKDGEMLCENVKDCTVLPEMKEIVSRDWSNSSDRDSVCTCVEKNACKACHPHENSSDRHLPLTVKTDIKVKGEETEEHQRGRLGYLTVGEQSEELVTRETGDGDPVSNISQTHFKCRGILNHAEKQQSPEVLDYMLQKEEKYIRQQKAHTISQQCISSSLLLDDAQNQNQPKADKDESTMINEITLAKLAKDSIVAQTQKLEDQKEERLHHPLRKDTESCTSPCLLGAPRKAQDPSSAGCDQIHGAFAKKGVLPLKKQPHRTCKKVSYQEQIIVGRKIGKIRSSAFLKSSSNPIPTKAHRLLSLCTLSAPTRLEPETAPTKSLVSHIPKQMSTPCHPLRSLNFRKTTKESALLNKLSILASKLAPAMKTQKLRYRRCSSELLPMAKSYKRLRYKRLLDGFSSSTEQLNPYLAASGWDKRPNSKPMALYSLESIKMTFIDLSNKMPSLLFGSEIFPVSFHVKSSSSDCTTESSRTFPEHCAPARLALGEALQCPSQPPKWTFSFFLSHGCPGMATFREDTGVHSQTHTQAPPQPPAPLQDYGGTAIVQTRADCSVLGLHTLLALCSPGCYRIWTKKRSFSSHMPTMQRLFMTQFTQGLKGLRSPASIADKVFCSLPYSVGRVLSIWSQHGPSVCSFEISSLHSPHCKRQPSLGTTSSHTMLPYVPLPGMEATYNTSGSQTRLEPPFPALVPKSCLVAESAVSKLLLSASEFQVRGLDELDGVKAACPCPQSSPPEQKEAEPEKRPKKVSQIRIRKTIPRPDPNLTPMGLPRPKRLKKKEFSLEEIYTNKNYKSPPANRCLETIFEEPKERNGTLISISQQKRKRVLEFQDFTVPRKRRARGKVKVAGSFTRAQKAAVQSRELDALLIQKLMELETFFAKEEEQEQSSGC

Each target was assayed with Cc1nc(Nc2ncc(C(=O)Nc3c(C)cccc3Cl)s2)cc(N2CCN(CCO)CC2)n1 [dasatinib] (assay: log2 fold change of tryptic peptide abundance, ligand vs vehicle (limited proteolysis) (log2 ratio); higher = more trypsin-susceptible (destabilized)). Settings: ligand concentration: 5 uM; sample: K562 cleared lysate.
“UniProt Q5JNZ3 (peptide sequence: LENQWETSIR, peptide start residue: 191)” was tested, and the log2 fold change was 0.185. With “DNTTIP2 (peptide sequence: SLSEINKPNFYNNDFDDDFSHR, peptide start residue: 251) (UniProt Q5QJE6)” the log2 fold change was -0.351. Work on “FNBP1L (peptide sequence: MEIHKNEAWLSEVEGK, peptide start residue: 463) (UniProt Q5T0N5)” yielded a log2 fold change of 0.386. “BCL7A (peptide sequence: WVPVTEPK, peptide start residue: 48) (UniProt Q4VC05)” gave a log2 fold change of 0.0874. “UniProt Q5T6J7 (peptide sequence: FYDADDYHPEENRR, peptide start residue: 32)” was tested, and the log2 fold change was 0.359. For “THEM4 (peptide sequence: LMKEEQMSQAQLFTR, peptide start residue: 99) (UniProt Q5T1C6)”, the log2 fold change was 0.126. Work on “TJAP1 (peptide sequence: GTEEGPGTSHTEGR, peptide start residue: 505) (UniProt Q5JTD0)” yielded a log2 fold change of 0.303. “CMPK2 (peptide sequence: KIFDDEPTIIRR, peptide start residue: 293) (UniProt Q5EBM0)” was tested, and the log2 fold change was 0.24. “TTC38 (peptide sequence: DASESPGENCQHLLAR, peptide start residue: 358) (UniProt Q5R3I4)” was tested, and the log2 fold change was 0.276. Work on “HERC4 (peptide sequence: ENIVGDAMEVLRK, peptide start residue: 716) (UniProt Q5GLZ8)” yielded a log2 fold change of -0.237. “MEX3C (peptide sequence: EILSAAEHFSMIR, peptide start residue: 292) (UniProt Q5U5Q3)” gave a log2 fold change of 0.28. For “ALDH1L2 (peptide sequence: LGFTGSTPIGK, peptide start residue: 667) (UniProt Q3SY69)”, the log2 fold change was 0.503. “UniProt Q5SVQ8 (peptide sequence: KKHSNETEFHK, peptide start residue: 409)” showed a log2 fold change of 0.227. For “C4orf46 (peptide sequence: EGYDSLKPDD, peptide start residue: 104) (UniProt Q504U0)”, the log2 fold change was -0.189. Target “UniProt Q5FWF5 (peptide sequence: ETNQDVQCNR, peptide start residue: 355)” has a log2 fold change of 0.406. “MRPL2 (peptide sequence: TKYTITPVK, peptide start residue: 70) (UniProt Q5T653)” was tested, and the log2 fold change was -0.119. “HSP90AA4P (peptide sequence: ESLTDPSKLDSGK, peptide start residue: 2) (UniProt Q58FG1)” was tested, and the log2 fold change was 0.109. “HECTD3 (peptide sequence: QQQLFGVDYRPVLR, peptide start residue: 164) (UniProt Q5T447)” showed a log2 fold change of 0.0654. For “UniProt Q53H96 (peptide sequence: MLLHEGQHPAQLR, peptide start residue: 219)”, the log2 fold change was -0.0912. In the case of “RILPL1 (peptide sequence: DVNFSEEEFQKHEGMSER, peptide start residue: 141) (UniProt Q5EBL4)”, the log2 fold change is reported as 0.485. “UniProt Q5T1B0 (peptide sequence: LLEVENR, peptide start residue: 932)” gave a log2 fold change of 0.0325. “BEND3 (peptide sequence: ANASNSPSSLR, peptide start residue: 159) (UniProt Q5T5X7)” was tested, and the log2 fold change was -0.798. Target “UniProt Q5THK1 (peptide sequence: VKGEETEEHQR, peptide start residue: 1333)” has a log2 fold change of 0.532. “ZC3H13 (peptide sequence: GRVPELPEK, peptide start residue: 565) (UniProt Q5T200)” showed a log2 fold change of 0.338. For “UniProt Q5TB30 (peptide sequence: KLQLLMR, peptide start residue: 326)”, the log2 fold change was -0.229. For “PREPL (peptide sequence: VIDLDMFK, peptide start residue: 349) (UniProt Q4J6C6)”, the log2 fold change was -0.0987. Target “UniProt Q5TCS8 (peptide sequence: KEEEEARK, peptide start residue: 699)” has a log2 fold change of 0.248. “EAPP (peptide sequence: IPTNDELLYDPEKDNR, peptide start residue: 131) (UniProt Q56P03)” showed a log2 fold change of -0.101. With “UniProt Q5T2D3 (peptide sequence: IFGNQGLNEGR, peptide start residue: 307)” the log2 fold change was -0.36.
